Results: patent US20050106141A1, “Hairless protein-interacting partner complexes and methods thereof for the beautification and/or improvement of mammalian skin” (The Procter & Gamble Company, priority 2003, published 2005)
Results are given in words; binding and its absence hold for the method and conditions named. Some entries that bind do so weakly or less than the wild type. Tags and fused reporters may be left off the sequences shown.

The chains behind the UniProt entries cited, without tags or fusion partners. Where a name states a change or a piece, a line headed by the entry shows the natural chain unless it says otherwise.
UniProt P04386: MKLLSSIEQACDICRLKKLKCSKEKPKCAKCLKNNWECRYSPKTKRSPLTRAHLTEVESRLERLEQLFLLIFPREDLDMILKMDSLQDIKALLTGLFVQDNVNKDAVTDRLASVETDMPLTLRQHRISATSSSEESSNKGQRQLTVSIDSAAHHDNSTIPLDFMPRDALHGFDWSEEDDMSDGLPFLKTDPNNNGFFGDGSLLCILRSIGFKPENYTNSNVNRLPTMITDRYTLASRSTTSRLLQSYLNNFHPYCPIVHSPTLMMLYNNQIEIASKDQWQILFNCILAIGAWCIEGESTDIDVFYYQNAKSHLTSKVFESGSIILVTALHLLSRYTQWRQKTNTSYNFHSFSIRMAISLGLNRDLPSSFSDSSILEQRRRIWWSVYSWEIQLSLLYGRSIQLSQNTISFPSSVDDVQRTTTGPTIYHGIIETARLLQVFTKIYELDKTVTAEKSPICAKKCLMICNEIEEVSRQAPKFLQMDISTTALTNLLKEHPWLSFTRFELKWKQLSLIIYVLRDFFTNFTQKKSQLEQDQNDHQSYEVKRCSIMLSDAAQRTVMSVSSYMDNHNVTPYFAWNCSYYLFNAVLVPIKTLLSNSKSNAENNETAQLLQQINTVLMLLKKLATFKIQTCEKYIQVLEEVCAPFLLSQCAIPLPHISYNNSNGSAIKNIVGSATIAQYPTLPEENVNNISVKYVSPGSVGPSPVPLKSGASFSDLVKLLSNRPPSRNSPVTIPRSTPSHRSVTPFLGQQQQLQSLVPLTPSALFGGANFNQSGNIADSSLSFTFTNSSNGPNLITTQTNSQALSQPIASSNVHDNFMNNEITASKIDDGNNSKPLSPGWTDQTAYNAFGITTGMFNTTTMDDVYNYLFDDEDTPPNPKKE

Legend:
AD-HRt(mouse) (mouse) [1] = molecular target: T1, AD-HRt(mouse) (mouse) (UniProt Q61645); test: yeast two-hybrid, directed test AD-HRt(mouse) with BD-VDR(mouse)
T1 sequence (looked up): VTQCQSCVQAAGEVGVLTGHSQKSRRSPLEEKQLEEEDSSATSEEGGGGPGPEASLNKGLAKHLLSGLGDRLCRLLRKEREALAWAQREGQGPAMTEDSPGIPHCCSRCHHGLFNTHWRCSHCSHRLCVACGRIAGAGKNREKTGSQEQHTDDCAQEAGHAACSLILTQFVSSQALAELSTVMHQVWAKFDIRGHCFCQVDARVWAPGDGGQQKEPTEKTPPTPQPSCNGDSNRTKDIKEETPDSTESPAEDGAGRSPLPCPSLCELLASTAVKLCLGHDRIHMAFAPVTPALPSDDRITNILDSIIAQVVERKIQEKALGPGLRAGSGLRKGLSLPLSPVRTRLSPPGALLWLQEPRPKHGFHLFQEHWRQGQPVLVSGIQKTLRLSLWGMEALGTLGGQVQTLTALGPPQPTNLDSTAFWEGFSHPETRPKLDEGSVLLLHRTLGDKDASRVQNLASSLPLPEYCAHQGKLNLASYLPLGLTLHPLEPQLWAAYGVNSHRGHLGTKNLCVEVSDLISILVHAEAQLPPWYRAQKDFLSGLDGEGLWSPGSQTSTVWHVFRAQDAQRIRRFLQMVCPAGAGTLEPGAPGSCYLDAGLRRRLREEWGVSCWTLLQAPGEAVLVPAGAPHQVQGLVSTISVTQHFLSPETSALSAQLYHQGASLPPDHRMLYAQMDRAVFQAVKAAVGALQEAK

AD-HRt(mouse) (mouse) [2] = molecular target: T1, AD-HRt(mouse) (mouse); test: yeast two-hybrid, directed test

For “BD-VDR(mouse) (from UniProt P04386 1-147; P48281 1-422) (receptor)”, which binding (AD-HRt(mouse) (mouse) [1]) is on record?
Its binding is “binds”.

And the binding (AD-HRt(mouse) (mouse) [2])?
The binding was “binds”.
